# Measurements from PubChem BioAssay AID1671190 (National Center for Advancing Translational Sciences (NCATS), 2021).
# Sequences of proteins named here, by UniProt entry; tags and fusion partners are left off. A change or cut given only in a name is not applied to a line headed by its entry.
# UniProt P18054: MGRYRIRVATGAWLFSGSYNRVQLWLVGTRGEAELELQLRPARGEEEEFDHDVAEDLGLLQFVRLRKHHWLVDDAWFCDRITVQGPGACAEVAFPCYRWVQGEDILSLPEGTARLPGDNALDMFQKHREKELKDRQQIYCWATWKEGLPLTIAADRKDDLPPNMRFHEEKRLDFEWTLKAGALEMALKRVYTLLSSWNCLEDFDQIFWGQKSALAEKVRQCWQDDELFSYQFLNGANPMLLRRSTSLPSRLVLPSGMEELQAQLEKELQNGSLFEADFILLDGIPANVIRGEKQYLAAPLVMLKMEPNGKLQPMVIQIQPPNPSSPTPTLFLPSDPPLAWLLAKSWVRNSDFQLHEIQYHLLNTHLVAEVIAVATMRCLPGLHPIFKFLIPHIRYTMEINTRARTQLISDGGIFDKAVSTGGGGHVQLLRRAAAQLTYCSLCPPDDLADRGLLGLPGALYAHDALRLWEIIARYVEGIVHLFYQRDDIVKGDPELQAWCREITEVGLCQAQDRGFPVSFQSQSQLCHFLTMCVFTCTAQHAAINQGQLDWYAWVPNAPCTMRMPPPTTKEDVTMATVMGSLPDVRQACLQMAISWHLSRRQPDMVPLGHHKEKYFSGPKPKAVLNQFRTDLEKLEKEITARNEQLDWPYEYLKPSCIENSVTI
# The campaign covered roughly 580,000 compounds. About 6,100 (1.1%) were called active. The inconclusive results got no clear call from the source; some entries with a clear call stand among them for comparison. Calls come from the whole dose curve; as a rule, active = well fitted inhibition curve with a large enough effect; inconclusive = small, poorly fitted or top-dose-only effect, or another doubt; inactive = no such curve, though single readings can be large or run the other way. A potency beside an inconclusive call is a rough fit, not a confirmed value.
# Target: Polyunsaturated fatty acid lipoxygenase ALOX12 (Homo sapiens) (UniProt P18054)
# Experiment: Primary qHTS assay for inhibitors of human arachidonate 12S-lipoxygenase (ALOX12): Round 2
# Details: purified 12hLO, xylenol orange hydroperoxide absorbance; series mostly up to 108 µM
# How it was run: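 Purified human 12hLO at 150 nM in 25 mM Hepes, 0.01% Triton X-100, pH 7.0, preincubated 15 min at room temperature with compound. Reaction started with 40 uM arachidonic acid, 30 min at room temperature. Hydroperoxide measured by Fe-xylenol orange, 573/405 nm absorbance ratio.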
# Potency is the fitted concentration of half-maximal effect.
row,SMILES,Potency
1,COc1ccc(NC(=O)c2cc(OCCCN(C)C)nn2Cc2ccccc2)cc1,"inconclusive: 35.5 µM [inhibitor, partial curve, poor fit]"
2,NC(=O)N/N=C/c1ccc(N2CCOCC2)s1,inactive
3,O=C(Cn1c(COc2ccc(Cl)cc2)nc2ccccc21)NCC(F)(F)F,inactive
4,CC(C)CC(=O)Nc1ccnn1C1CCN(C(=O)c2ccc(F)cc2Cl)CC1,inactive
5,Cc1nc(SCc2nc3ccccc3[nH]2)c2oc3ccccc3c2n1,inactive
6,COc1cccc(CNC(=O)[C@@H]2C[C@@H](O)CN2C2CCN(C(=O)Cc3ccc(Cl)cc3)CC2)c1,inactive
7,CCn1c(=S)[nH]c2sc3c(c2c1=O)CCCCC3,"inconclusive: 50.1 µM [inhibitor, partial curve, poor fit]"
8,O=C(OCC(=O)c1c[nH]c2ccccc12)c1cncc(Br)c1,"inconclusive: 28.2 µM [inhibitor, partial curve, poor fit]"
9,CCC(C)NC(=O)CSc1nnc(-c2ccoc2C)n1CC1CCCO1 (stereo unspecified),"inconclusive: 35.5 µM [inhibitor, full curve, poor fit]"
10,O=C(CC(c1ccc(F)cc1)c1ccco1)N1CCCC1 (stereo unspecified),inactive
11,CCOC(=O)c1ccc(NC(=O)C23CCC(C)(C(=O)O2)C3(C)C)cc1 (stereo unspecified),inactive
12,NNc1nc2c(F)cccc2s1,"inconclusive: 50.1 µM [inhibitor, partial curve, poor fit]"
13,COc1ccc(N=c2oc3cc(O)ccc3cc2C(=O)NCC2CCCO2)cc1 (stereo unspecified),inactive
14,Cc1cccc(C2c3cc(OCc4nc(C(=O)NC(C)C)co4)ccc3CCN2C(=O)C2CC2)c1 (stereo unspecified),"inconclusive: 31.6 µM [inhibitor, single point]"
15,CC1(NC(=O)CSc2nc(CN3CCOCC3)nc3ccccc23)CCS(=O)(=O)C1 (stereo unspecified),inactive
16,CCOC(=O)c1ccc(Nc2nnc(C(C)(C)C)c(=O)[nH]2)cc1,inactive
17,CCC1CCC(NC(=S)NCc2ccc(F)cc2)CC1 (stereo unspecified),"inconclusive: 15.8 µM [inhibitor, full curve, poor fit]"
18,CC(=O)c1c(C)[nH]c(-c2csc(NC(C)C)n2)c1C,"inconclusive: 8.91 µM [inhibitor, full curve, poor fit]"
19,COc1ccc(C(=O)Nc2c(O)ccc3ccccc23)cc1,"inconclusive: 31.6 µM [inhibitor, partial curve, poor fit]"
20,COc1ccc(/C=C2\CCCC(C(=O)C(F)(F)F)=C2O)cc1,"inconclusive: 7.08 µM [inhibitor, partial curve, poor fit]"
21,CC[C@@H]1Cc2[nH][nH]c(=O)c2[C@@H](c2ccc(Cl)cc2)O1,"inconclusive: 126 µM [inhibitor, partial curve, poor fit]"

# Ordered by number of heavy atoms (high to low): three of the compounds above.
row,SMILES,Potency
8,O=C(OCC(=O)c1c[nH]c2ccccc12)c1cncc(Br)c1,"inconclusive: 28.2 µM [inhibitor, partial curve, poor fit]"
10,O=C(CC(c1ccc(F)cc1)c1ccco1)N1CCCC1 (stereo unspecified),inactive
2,NC(=O)N/N=C/c1ccc(N2CCOCC2)s1,inactive
